Reference: PMC6779109, “The Glutamate Receptor-Like Protein GLR3.7 Interacts With 14-3-3ω and Participates in Salt Stress Response in Arabidopsis thaliana” (Frontiers in Plant Science, 2019)
Results are given in words; binding and its absence hold for the method and conditions named. For some of these results: In cells and extracts the contact can be indirect. Some binding calls cover weakened binding; strength is not graded here. Tags and fused reporters may be left off the sequences shown. Each block holds one binder with its values, some of them ahead of it.

Columns and labels:
[1] = target: T1, AtGLR3.7 fused to a half of EYFP (GLR3.7-nEYFP and GLR3.7-cEYFP) (Arabidopsis thaliana) (UniProt Q9SDQ4); assay: split reporter; BiFC in Arabidopsis leaf protoplasts, halves of EYFP, both orientations, confocal microscopy 12 to 16 h after transformation
T1 sequence: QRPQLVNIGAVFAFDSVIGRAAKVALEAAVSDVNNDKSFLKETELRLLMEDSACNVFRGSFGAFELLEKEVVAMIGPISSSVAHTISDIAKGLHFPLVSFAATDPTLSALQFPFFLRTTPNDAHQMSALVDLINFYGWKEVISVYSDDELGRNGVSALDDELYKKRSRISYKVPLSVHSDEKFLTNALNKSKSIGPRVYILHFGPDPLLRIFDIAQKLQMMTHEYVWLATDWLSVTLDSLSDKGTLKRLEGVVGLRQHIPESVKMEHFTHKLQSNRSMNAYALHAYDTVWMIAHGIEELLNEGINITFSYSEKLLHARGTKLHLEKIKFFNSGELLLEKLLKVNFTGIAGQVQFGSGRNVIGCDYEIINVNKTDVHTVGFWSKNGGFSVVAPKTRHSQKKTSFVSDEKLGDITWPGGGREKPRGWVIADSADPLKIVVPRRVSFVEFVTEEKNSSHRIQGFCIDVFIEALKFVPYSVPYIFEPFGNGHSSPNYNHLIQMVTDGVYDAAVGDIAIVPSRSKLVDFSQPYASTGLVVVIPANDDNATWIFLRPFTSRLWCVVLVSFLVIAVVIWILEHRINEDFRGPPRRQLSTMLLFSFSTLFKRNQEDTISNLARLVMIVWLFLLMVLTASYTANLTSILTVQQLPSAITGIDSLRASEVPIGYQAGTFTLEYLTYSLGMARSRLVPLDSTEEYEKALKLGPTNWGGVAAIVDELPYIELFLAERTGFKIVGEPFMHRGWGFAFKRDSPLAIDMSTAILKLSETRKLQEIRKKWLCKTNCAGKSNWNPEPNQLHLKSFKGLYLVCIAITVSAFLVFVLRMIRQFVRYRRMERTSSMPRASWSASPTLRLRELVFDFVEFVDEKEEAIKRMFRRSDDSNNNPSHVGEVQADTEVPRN

[2] = target: T2, GLR3.7-YFP^N (Arabidopsis thaliana) (UniProt Q9SDQ4); assay: split reporter; BiFC in epidermal cells of N. benthamiana, transient expression by A. tumefaciens, YFP^N and YFP^C fusions, DeltaVision Core imaging
T2 sequence: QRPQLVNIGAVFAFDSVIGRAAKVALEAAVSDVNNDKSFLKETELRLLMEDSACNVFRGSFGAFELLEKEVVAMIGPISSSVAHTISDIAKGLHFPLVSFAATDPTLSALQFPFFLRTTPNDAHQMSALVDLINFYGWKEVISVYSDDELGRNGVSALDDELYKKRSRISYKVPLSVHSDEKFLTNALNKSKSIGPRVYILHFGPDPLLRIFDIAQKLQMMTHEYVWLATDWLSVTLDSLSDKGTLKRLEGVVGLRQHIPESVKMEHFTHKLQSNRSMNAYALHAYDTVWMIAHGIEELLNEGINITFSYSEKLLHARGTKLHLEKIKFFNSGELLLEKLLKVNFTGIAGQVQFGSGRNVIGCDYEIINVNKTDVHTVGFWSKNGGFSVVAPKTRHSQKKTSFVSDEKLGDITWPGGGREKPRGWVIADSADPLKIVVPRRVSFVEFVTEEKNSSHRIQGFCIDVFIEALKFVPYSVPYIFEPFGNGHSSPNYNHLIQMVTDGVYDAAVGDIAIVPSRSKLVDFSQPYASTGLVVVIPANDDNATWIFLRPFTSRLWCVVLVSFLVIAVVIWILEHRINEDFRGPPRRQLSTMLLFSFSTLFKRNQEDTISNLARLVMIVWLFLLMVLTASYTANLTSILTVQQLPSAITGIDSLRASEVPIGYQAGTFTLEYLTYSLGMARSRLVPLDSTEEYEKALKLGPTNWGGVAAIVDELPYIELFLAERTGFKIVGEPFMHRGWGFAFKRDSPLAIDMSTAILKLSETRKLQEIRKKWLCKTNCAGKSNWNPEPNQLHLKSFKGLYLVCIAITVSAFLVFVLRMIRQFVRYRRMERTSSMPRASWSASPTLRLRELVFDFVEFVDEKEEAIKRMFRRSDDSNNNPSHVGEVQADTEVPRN

[3] = target: T3, GLR3.7 S860A-YFP^N (Arabidopsis thaliana) (UniProt Q9SDQ4); assay: as above
T3 sequence: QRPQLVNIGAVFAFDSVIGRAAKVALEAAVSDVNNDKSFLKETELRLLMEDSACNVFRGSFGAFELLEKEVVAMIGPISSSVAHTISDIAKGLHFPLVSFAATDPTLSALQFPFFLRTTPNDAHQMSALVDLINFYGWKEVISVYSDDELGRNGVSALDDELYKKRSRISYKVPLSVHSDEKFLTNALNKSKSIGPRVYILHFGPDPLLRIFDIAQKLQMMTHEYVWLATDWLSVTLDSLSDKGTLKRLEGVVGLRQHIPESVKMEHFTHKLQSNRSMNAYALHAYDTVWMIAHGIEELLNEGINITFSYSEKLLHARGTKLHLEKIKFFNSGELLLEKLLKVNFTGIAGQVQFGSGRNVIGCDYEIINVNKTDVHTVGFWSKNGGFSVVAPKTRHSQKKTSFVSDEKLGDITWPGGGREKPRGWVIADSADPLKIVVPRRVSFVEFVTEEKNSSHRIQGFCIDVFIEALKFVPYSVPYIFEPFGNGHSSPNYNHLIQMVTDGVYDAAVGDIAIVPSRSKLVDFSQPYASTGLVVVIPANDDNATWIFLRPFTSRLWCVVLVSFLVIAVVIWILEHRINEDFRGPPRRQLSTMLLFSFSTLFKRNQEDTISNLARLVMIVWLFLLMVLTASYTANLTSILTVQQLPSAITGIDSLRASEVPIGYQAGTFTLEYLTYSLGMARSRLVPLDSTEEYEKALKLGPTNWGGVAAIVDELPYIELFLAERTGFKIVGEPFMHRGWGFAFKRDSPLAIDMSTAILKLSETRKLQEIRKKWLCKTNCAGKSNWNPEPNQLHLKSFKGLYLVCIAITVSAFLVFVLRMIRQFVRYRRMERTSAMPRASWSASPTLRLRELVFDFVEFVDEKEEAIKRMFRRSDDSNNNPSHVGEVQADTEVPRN

[4] = target: T4, GST-GLR3.7 P1 recombinant fusion peptide (Ser-860 to Ala) (Arabidopsis thaliana); assay: quartz crystal microbalance; GST fusion peptide coated on the sensor to saturation, 6His-14-3-3ω injected into PBS; AFFINIX QN μ, Kd by AQUA software; both purified
T4 sequence: RYRRMERTSAMPRA

- binding [1]: binds
B1: 14-3-3ω fused to a half of EYFP (14-3-3ω-cEYFP and 14-3-3ω-nEYFP) (protein, UniProt Q01525 1-259)
chain: MASGREEFVYMAKLAEQAERYEEMVEFMEKVSAAVDGDELTVEERNLLSVAYKNVIGARRASWRIISSIEQKEESRGNDDHVTAIREYRSKIETELSGICDGILKLLDSRLIPAAASGDSKVFYLKMKGDYHRYLAEFKTGQERKDAAEHTLAAYKSAQDIANAELAPTHPIRLGLALNFSVFYYEILNSPDRACNLAKQAFDEAIAELDTLGEESYKDSTLIMQLLRDNLTLWTSDMQDDAADEIKEAAAPKPTEEQQ

- binding [2]: binds
- binding [3]: no binding
B2: 14-3-3ω-YFP^C (protein, UniProt Q01525 1-259)
chain: MASGREEFVYMAKLAEQAERYEEMVEFMEKVSAAVDGDELTVEERNLLSVAYKNVIGARRASWRIISSIEQKEESRGNDDHVTAIREYRSKIETELSGICDGILKLLDSRLIPAAASGDSKVFYLKMKGDYHRYLAEFKTGQERKDAAEHTLAAYKSAQDIANAELAPTHPIRLGLALNFSVFYYEILNSPDRACNLAKQAFDEAIAELDTLGEESYKDSTLIMQLLRDNLTLWTSDMQDDAADEIKEAAAPKPTEEQQ

- binding [4]: no binding
B3: 6His-14-3-3ω recombinant protein (protein, UniProt Q01525 1-259)
chain: MASGREEFVYMAKLAEQAERYEEMVEFMEKVSAAVDGDELTVEERNLLSVAYKNVIGARRASWRIISSIEQKEESRGNDDHVTAIREYRSKIETELSGICDGILKLLDSRLIPAAASGDSKVFYLKMKGDYHRYLAEFKTGQERKDAAEHTLAAYKSAQDIANAELAPTHPIRLGLALNFSVFYYEILNSPDRACNLAKQAFDEAIAELDTLGEESYKDSTLIMQLLRDNLTLWTSDMQDDAADEIKEAAAPKPTEEQQ
